Assay results published in the supplement of paper PMC10849652.
The other results are listed elsewhere or left out.

Chains of the proteins cited; added tags and fusions are not shown. Lines headed by an entry give the natural chain unless they say otherwise; changes in a name come on top.
UniProt Q6NXT1: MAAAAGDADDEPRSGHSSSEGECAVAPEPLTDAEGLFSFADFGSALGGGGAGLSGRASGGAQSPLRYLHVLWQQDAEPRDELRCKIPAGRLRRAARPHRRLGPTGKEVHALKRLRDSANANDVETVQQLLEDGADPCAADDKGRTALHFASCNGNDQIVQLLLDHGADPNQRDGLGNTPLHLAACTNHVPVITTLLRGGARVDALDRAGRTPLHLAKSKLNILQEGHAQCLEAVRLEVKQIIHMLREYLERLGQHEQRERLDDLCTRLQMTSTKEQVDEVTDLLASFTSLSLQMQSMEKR
UniProt P30038: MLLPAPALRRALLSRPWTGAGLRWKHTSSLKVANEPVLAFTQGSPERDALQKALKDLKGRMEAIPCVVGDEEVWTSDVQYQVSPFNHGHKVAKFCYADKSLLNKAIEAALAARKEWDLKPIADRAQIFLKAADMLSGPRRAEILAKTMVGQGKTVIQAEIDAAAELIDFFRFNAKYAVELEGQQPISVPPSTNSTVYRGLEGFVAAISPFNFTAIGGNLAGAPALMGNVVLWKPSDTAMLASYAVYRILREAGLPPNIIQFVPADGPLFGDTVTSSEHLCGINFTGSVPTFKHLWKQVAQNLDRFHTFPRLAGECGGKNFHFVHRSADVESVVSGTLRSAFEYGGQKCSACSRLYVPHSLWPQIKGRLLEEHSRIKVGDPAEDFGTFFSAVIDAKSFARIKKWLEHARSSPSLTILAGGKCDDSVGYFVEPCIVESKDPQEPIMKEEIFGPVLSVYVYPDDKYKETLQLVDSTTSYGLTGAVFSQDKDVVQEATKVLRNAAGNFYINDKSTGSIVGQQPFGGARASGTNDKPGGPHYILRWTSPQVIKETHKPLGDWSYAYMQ
UniProt Q9H6U8: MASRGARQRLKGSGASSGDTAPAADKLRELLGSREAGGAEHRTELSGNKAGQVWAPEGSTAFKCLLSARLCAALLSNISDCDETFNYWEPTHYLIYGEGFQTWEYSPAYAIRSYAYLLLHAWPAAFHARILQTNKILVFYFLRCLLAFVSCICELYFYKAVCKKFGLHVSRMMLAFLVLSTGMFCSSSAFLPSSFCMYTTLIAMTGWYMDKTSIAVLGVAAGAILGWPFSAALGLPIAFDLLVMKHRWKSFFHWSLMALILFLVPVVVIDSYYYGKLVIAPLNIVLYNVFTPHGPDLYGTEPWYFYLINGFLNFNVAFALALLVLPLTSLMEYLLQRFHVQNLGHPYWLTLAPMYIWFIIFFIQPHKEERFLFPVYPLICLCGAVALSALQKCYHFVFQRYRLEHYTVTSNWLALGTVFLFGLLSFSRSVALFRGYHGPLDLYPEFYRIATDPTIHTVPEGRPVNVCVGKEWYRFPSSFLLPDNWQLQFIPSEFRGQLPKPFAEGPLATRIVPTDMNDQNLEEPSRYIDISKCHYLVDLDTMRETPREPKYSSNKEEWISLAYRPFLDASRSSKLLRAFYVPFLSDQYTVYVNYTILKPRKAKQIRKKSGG
UniProt Q92625: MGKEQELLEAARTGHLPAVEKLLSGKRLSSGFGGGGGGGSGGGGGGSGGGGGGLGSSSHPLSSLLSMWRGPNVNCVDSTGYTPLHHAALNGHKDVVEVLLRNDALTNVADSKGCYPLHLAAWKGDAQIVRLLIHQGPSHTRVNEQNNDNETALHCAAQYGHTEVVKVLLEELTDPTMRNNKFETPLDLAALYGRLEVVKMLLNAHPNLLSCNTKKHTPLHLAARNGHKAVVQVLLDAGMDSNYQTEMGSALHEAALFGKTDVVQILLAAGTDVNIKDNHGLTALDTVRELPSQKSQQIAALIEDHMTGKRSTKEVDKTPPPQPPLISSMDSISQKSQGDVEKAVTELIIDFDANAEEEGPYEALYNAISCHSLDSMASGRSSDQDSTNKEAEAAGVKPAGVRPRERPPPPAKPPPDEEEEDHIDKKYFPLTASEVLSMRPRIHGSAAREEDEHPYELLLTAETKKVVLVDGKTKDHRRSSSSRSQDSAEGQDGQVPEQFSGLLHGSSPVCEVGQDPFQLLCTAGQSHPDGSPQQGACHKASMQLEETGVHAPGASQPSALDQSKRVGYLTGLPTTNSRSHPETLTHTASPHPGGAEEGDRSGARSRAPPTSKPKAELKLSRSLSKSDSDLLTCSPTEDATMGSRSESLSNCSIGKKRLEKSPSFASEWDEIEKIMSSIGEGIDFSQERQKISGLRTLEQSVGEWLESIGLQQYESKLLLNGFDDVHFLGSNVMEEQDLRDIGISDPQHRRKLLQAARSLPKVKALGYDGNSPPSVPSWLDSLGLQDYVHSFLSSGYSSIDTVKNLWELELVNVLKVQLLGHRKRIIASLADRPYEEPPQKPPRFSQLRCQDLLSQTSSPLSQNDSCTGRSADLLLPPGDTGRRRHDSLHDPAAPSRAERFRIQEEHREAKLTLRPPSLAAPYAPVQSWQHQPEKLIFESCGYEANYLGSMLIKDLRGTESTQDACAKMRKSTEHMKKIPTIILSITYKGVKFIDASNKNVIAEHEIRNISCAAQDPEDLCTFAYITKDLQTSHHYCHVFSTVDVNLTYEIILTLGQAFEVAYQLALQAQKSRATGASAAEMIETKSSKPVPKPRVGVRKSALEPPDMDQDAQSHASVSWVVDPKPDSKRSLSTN
UniProt Q86W74: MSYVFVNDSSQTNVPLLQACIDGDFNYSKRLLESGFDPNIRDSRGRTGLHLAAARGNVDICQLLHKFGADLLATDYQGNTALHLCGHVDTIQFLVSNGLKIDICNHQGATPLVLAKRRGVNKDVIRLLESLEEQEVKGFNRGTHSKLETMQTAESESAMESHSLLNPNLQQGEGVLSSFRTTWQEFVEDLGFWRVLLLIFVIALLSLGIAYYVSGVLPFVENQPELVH
UniProt Q9Y303: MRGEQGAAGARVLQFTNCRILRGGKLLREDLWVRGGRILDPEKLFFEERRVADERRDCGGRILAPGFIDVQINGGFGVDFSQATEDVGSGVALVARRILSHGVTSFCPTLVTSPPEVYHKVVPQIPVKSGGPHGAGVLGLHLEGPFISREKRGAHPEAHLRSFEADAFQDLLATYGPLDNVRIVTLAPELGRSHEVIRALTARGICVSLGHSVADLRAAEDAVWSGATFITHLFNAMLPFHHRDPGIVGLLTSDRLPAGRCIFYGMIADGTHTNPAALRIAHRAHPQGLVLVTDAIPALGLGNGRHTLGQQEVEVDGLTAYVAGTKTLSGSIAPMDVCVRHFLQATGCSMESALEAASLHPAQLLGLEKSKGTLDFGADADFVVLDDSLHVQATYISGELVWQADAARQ
UniProt Q92572: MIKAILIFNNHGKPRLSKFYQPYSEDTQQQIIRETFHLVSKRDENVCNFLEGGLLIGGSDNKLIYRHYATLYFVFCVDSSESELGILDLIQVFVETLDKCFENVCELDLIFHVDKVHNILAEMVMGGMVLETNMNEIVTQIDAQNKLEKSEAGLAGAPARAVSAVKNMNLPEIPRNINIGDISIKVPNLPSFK
UniProt Q9UM13, whole entry, looked up: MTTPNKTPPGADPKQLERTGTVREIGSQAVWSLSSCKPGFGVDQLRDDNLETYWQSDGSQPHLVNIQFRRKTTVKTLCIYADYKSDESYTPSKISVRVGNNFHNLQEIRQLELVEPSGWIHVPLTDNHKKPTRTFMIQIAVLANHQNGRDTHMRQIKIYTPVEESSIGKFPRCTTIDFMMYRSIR
UniProt Q9UJX5, whole entry, looked up: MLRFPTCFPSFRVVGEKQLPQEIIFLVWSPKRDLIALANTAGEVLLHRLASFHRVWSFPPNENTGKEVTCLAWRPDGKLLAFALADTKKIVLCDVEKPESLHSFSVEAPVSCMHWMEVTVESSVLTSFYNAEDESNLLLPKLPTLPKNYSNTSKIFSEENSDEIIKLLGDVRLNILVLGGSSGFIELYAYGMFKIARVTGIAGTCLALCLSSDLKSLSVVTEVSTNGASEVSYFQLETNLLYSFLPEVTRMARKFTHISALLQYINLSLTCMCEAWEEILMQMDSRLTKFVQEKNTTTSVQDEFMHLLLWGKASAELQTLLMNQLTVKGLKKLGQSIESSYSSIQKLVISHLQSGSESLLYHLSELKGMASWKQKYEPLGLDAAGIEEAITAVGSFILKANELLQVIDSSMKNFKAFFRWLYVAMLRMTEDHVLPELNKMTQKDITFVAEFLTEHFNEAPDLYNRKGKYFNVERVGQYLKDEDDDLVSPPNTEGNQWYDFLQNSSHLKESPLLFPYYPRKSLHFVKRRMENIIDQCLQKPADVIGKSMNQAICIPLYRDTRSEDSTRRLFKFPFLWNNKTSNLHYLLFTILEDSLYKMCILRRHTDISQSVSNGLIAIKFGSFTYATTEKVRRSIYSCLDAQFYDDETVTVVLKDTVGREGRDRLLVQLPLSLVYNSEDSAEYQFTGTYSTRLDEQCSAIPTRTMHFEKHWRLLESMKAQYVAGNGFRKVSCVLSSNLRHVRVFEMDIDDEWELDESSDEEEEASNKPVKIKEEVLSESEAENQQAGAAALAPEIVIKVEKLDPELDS
UniProt Q6NS38: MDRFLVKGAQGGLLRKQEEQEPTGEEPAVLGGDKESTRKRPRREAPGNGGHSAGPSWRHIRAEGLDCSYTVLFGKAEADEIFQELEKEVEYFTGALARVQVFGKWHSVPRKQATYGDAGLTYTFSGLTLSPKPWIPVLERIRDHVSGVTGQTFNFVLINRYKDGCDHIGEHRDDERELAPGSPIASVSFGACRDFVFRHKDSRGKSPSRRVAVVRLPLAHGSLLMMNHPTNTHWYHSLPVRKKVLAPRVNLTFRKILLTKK
UniProt P56377: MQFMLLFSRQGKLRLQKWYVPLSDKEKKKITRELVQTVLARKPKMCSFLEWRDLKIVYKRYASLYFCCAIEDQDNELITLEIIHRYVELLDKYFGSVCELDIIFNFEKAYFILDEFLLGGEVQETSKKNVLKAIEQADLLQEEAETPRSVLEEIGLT
UniProt O95782: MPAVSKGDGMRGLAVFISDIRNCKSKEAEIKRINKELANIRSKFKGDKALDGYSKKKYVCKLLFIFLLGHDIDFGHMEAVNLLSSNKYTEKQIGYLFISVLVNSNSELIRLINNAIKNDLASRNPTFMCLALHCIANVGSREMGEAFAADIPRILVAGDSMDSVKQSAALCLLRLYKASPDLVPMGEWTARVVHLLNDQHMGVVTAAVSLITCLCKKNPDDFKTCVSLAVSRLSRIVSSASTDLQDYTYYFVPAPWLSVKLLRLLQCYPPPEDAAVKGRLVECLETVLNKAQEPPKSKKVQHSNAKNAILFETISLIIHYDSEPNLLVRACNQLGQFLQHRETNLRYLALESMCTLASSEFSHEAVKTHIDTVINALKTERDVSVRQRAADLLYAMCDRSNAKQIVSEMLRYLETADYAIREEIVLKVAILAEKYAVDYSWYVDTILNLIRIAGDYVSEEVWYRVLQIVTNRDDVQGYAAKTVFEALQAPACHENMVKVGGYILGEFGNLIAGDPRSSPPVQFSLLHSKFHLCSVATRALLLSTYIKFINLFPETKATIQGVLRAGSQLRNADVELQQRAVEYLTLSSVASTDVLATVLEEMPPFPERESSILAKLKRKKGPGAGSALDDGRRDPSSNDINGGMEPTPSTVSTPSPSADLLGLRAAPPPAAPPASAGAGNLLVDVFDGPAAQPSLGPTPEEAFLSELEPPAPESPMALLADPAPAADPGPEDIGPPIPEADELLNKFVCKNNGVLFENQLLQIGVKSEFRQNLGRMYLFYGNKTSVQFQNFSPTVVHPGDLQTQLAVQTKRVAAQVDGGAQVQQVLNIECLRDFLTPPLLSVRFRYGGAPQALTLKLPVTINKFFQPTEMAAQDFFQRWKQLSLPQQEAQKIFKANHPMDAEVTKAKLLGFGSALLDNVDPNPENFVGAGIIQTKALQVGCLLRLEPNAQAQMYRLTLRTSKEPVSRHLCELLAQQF
UniProt P58335, whole entry, looked up: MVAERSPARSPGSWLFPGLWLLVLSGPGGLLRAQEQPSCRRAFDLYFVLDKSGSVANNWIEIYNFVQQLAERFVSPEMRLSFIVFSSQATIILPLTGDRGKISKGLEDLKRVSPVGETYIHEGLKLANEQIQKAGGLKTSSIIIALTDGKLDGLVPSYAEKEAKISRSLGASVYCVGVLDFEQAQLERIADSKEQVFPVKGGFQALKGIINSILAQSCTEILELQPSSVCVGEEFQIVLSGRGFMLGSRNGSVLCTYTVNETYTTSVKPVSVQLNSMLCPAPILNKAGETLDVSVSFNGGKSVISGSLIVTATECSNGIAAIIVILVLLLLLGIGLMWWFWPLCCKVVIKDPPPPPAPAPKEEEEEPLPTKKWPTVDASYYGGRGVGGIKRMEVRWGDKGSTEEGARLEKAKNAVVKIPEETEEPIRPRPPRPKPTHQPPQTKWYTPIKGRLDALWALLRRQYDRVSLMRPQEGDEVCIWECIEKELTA
UniProt Q9BTT0: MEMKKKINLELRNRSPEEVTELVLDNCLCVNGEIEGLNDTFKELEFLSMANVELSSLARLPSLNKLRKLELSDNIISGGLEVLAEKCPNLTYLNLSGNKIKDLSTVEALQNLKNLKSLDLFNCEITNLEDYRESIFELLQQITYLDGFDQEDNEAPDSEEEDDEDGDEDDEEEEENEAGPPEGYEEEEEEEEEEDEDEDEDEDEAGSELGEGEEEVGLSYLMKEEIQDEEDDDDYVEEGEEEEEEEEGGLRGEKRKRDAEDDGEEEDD

Assays:
Assay in all cases: log2 fold change, soluble protein after heating vs DMSO (PISA); higher = thermal stabilisation; K562 lysate, 10 uM; active = over 0.2 and 3.5 SD of the protein, either way, in both replicates (recomputed)
[1] = compound: NCC(=O)Nc1ccc(-n2nc(C(F)(F)F)cc2-c2ccc3c(ccc4ccccc43)c2)cc1
Method in brief: (§1)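 A 30 min treatment with 10 μM compound was applied to crude K562 extract at 1 mg/mL protein in PBS pH 7.4 with 1 mM MgCl2. Heating for 3 min spanned 48°C-58°C, after which aliquots were pooled, adjusted to 0.5% NP-40 at 4°C and spun at 21,000xg for 90 min. TMTpro 16plex LC-MS/MS of the supernatant, with channel sums equalised, gave values recorded as log-two fold change in thermal stability against solvent controls, from duplicates.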

[2] = compound: O=C(CCCCCCC(=O)Nc1ccccc1)NO [vorinostat]
Method in brief: as §1

[3] = compound: O=C(O)c1ccc2c(c1)nc(Nc1cccc(Cl)c1)c1ccncc12 [silmitasertib]
Method in brief: as §1

[4] = compound: O=C1NC(=O)C(c2cnc3ccccn23)=C1c1cn2c3c(cc(F)cc13)CN(C(=O)N1CCCCC1)CC2
Method in brief: as §1

[5] = compound: c1cn2cc(-c3ccc4cn[nH]c4c3)nc(Nc3ccc(N4CCOCC4)cc3)c2n1 [entospletinib]
Method in brief: as §1

Target | log2 fold change [1] | log2 fold change [2] | log2 fold change [3] | log2 fold change [4] | log2 fold change [5]
ANAPC1 (UniProt Q9H1A4) | inactive: 0.008 | inactive: -0.145 | inactive: 0.01 | inactive: -0.004 | inactive: 0.015
ALDH18A1 (UniProt P54886) | inactive: 0.023 | active: -0.401 | inactive: 0.023 | inactive: -0.015 | inactive: 0.022
ANXA13 isoform 2 (UniProt P27216) | inactive: -0.084 | inactive: 0.004 | inactive: 0.024 | inactive: 0.02 | 
AP2M1 (UniProt Q96CW1) | inactive: 0.011 | inactive: 0.035 | inactive: -0.012 | inactive: 0.022 | inactive: 0.024
ANXA3 (UniProt P12429) | inactive: -0.004 | inactive: 0.002 | inactive: -0.003 | inactive: -0.035 | inactive: 0.042
ANKRD40 (UniProt Q6AI12) | active: 0.914 | inactive: -0.217 | inactive: -0.088 | inactive: 0.007 | inactive: -0.057
AKT1S1 isoform 3 (UniProt Q96B36) | inactive: 0.046 | inactive: 0.067 | inactive: 0.015 | inactive: -0.08 | inactive: -0.001
ALDH5A1 isoform 2 (UniProt P51649) | inactive: -0.02 | active: 0.371 | inactive: -0.005 | inactive: -0.057 | inactive: 0.003
ALKBH5 (UniProt Q6P6C2) | inactive: 0.054 | inactive: 0.038 | inactive: -0.094 | inactive: 0.062 | inactive: 0.003
AP1AR (UniProt Q63HQ0) | inactive: 0.013 | inactive: -0.018 | inactive: 0.086 | inactive: -0.011 | inactive: -0.036
ALMS1 (UniProt Q8TCU4) | inactive: 0.046 | inactive: -0.034 | inactive: 0.021 | inactive: 0.146 | inactive: -0.016
ANAPC2 (UniProt Q9UJX6) | inactive: 0.023 | inactive: -0.134 | inactive: 0.003 | inactive: 0.005 | inactive: 0.021
AMBRA1 isoform 5 (UniProt Q9C0C7) | inactive: 0.062 | inactive: -0.088 | inactive: 0.108 | inactive: -0.032 | inactive: 0
ALS2 (UniProt Q96Q42) | inactive: 0.035 | inactive: -0.209 | inactive: 0.011 | inactive: 0.024 | inactive: 0.011
AP3D1 isoform 2 (UniProt O14617) | inactive: 0.179 | active: -0.738 | inactive: 0.02 |  | 
ANKRD54 (UniProt Q6NXT1) | inactive: 0.023 | active: -0.245 | inactive: 0.007 | inactive: -0.076 | inactive: -0.006
ALDH4A1 (UniProt P30038) | inactive: -0.103 | inactive: -0.148 | inactive: 0.068 | inactive: 0.006 | inactive: -0.013
ANKMY2 (UniProt Q8IV38) | inactive: -0.064 | inactive: -0.017 | inactive: 0.018 | inactive: -0.002 | inactive: 0.003
ALDH1A2 (UniProt O94788) | inactive: -0.008 | inactive: 0.21 | inactive: 0.006 | inactive: -0.012 | inactive: -0.007
AP1B1 (UniProt Q10567) | inactive: -0.031 | inactive: 0.112 | inactive: -0.006 | inactive: 0.001 | inactive: 0.015
ANKRD28 (UniProt O15084) | inactive: -0.014 | inactive: -0.081 | inactive: 0.011 | inactive: 0.015 | inactive: 0.01
ALG9 isoform 3 (UniProt Q9H6U8) | inactive: 0.046 | inactive: 0.13 | inactive: -0.07 | inactive: 0 | inactive: -0.009
AMMECR1L (UniProt Q6DCA0) | inactive: -0.024 | inactive: -0.04 | inactive: -0.127 | inactive: -0.016 | inactive: 0.02
ANKRD13A (UniProt Q8IZ07) | inactive: 0.024 | inactive: -0.075 | inactive: 0.003 | inactive: -0.01 | inactive: 0
ANKS1A (UniProt Q92625) | inactive: -0.023 | inactive: -0.095 | inactive: -0.009 | inactive: 0.002 | inactive: -0.006
ANKRD46 (UniProt Q86W74) | inactive: -0.012 | inactive: -0.015 | inactive: -0.109 | inactive: 0.058 | 
AMD1 (UniProt P17707) | inactive: 0.071 | inactive: -0.076 | inactive: 0.062 | inactive: 0.499 | inactive: 0.211

Target | log2 fold change [1] | log2 fold change [2] | log2 fold change [3] | log2 fold change [4] | log2 fold change [5]
ALDH1A1 (UniProt P00352) | inactive: -0.038 | inactive: 0.116 | inactive: -0.011 | inactive: -0.018 | inactive: 0.02
AMPD2 (UniProt Q01433) | inactive: -0.014 | inactive: 0.052 | inactive: 0 | inactive: -0.01 | inactive: -0.011
ALG8 (UniProt Q9BVK2) | inactive: -0.022 | inactive: -0.05 | inactive: 0.063 | inactive: -0.008 | inactive: -0.007
AMDHD2 isoform 3 (UniProt Q9Y303) | inactive: 0.038 | inactive: 0.088 | inactive: -0.004 | inactive: -0.002 | inactive: 0.056
AMIGO2 (UniProt Q86SJ2) | inactive: -0.022 |  |  |  | 
ANO6 (UniProt Q4KMQ2) | inactive: -0.009 | inactive: -0.118 | inactive: 0.027 | inactive: -0.001 | inactive: -0.004
AP2B1 isoform 2 (UniProt P63010) | inactive: 0.02 | inactive: 0.059 | inactive: 0.023 | inactive: -0.002 | inactive: 0.008
ANKRD10 (UniProt Q9NXR5) | inactive: 0 | active: -0.589 | inactive: 0.037 | inactive: -0.066 | 
AP3S1 (UniProt Q92572) | inactive: 0 | inactive: 0.002 | inactive: -0.022 | inactive: -0.045 | inactive: 0.018
ANAPC10 (UniProt Q9UM13) | inactive: -0.009 | inactive: -0.232 | inactive: -0.086 | inactive: -0.007 | inactive: 0.011
AMZ2 (UniProt Q86W34) | inactive: -0.009 | inactive: 0.1 | inactive: -0.032 | inactive: -0.031 | inactive: -0.019
AKT1 (UniProt P31749) | inactive: -0.051 | inactive: -0.192 | inactive: -0.012 | inactive: -0.024 | inactive: -0.005
ANAPC4 isoform 3 (UniProt Q9UJX5) | inactive: -0.022 | inactive: -0.038 | inactive: -0.006 | inactive: -0.026 | inactive: 0.014
ALYREF (UniProt Q86V81) | inactive: 0.029 | inactive: 0.117 | inactive: 0.018 | inactive: 0.035 | inactive: 0.008
ANKRD29 (UniProt Q8N6D5) | inactive: 0.261 | inactive: 0.051 | inactive: 0.029 | inactive: 0.172 | inactive: 0.012
ALKBH2 (UniProt Q6NS38) | inactive: 0.068 | inactive: -0.219 | inactive: -0.014 | inactive: -0.065 | inactive: -0.091
ANXA4 (UniProt P09525) | inactive: 0.03 | inactive: -0.003 | inactive: -0.001 | inactive: -0.002 | inactive: -0.008
AP3M1 (UniProt Q9Y2T2) | inactive: -0.007 | inactive: -0.1 | inactive: -0.005 | inactive: 0 | inactive: 0.01
AP1S1 (UniProt P61966) | inactive: -0.063 | inactive: 0.067 | inactive: -0.002 | inactive: -0.024 | inactive: -0.015
ANKRD11 (UniProt Q6UB99) | inactive: 0 | inactive: 0.015 | inactive: 0.007 | inactive: -0.286 | inactive: 0.051
ANXA11 (UniProt P50995) | inactive: -0.003 | inactive: -0.117 | inactive: 0.044 | inactive: -0.018 | inactive: 0.031
AP1S2 isoform 2 (UniProt P56377) | inactive: -0.04 | inactive: 0.021 | inactive: 0.065 | inactive: -0.101 | inactive: -0.006
AP2A1 (UniProt O95782) | inactive: 0.004 | inactive: 0.013 | inactive: 0.036 | inactive: 0.016 | inactive: 0.026
ALDH1L2 (UniProt Q3SY69) | inactive: 0.017 | inactive: 0.106 | inactive: 0.016 | inactive: -0.027 | inactive: 0.031
ANTXR2 isoform 4 (UniProt P58335) | inactive: 0.011 | inactive: 0.123 | inactive: -0.005 | inactive: -0.011 | inactive: 0.01
ANP32E (UniProt Q9BTT0) | inactive: 0.021 | inactive: 0.217 | inactive: -0.029 | inactive: -0.011 | inactive: 0.012
AMOTL1 (UniProt Q8IY63) | inactive: 0.218 | inactive: -0.036 | inactive: 0.002 | inactive: 0 | inactive: -0.015

An excerpt from further up, as a working copy:
Target | log2 fold change [1] | log2 fold change [2] | log2 fold change [3] | log2 fold change [4] | log2 fold change [5]
ANXA11 (UniProt P50995) | inactive: -0.003 | inactive: -0.117 | inactive: 0.044 | inactive: -0.018 | inactive: 0.031
AP1S2 isoform 2 (UniProt P56377) | inactive: -0.04 | inactive: 0.021 | inactive: 0.065 | inactive: -0.101 | inactive: -0.006
AP2A1 (UniProt O95782) | inactive: 0.004 | inactive: 0.013 | inactive: 0.036 | inactive: 0.016 | inactive: 0.026
ALDH1L2 (UniProt Q3SY69) | inactive: 0.017 | inactive: 0.106 | inactive: 0.016 | inactive: -0.027 | inactive: 0.031
